# Measurements reported in publication doi:10.1101/2025.04.04.647332.
# Protein sequences, listed by entry. Tags and fused reporters are not part of them. Lines headed by an entry give the natural chain unless they say otherwise; changes in a name come on top.
# UniProt P20585: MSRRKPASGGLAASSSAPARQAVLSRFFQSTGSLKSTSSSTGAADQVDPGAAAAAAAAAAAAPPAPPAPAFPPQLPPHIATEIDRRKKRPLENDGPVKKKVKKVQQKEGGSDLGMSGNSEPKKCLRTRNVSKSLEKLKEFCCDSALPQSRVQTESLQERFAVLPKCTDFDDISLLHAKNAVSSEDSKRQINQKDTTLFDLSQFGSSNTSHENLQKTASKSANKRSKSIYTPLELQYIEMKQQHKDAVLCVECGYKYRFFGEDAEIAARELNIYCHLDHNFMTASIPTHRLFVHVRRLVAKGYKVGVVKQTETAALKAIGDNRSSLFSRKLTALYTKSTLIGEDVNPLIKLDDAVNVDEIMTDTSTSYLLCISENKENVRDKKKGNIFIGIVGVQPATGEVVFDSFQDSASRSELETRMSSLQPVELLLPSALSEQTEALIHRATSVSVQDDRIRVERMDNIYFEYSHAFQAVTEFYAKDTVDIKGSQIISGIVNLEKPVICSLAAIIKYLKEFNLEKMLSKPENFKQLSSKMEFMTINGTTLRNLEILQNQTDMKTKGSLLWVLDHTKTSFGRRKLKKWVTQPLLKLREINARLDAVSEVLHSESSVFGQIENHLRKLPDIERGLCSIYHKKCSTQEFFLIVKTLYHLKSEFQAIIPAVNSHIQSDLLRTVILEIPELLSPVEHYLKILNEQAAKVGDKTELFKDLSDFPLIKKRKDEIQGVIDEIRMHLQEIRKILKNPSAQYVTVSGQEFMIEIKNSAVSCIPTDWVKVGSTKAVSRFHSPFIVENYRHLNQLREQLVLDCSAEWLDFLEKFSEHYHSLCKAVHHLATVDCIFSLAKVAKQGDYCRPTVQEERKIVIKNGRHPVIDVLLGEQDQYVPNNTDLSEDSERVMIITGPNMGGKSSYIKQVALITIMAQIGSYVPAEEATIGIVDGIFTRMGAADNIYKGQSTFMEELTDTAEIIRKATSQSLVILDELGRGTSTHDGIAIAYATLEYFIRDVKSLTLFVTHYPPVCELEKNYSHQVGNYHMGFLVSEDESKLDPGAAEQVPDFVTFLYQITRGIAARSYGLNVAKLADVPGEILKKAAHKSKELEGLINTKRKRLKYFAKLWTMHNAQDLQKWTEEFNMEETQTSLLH
# UniProt P43246: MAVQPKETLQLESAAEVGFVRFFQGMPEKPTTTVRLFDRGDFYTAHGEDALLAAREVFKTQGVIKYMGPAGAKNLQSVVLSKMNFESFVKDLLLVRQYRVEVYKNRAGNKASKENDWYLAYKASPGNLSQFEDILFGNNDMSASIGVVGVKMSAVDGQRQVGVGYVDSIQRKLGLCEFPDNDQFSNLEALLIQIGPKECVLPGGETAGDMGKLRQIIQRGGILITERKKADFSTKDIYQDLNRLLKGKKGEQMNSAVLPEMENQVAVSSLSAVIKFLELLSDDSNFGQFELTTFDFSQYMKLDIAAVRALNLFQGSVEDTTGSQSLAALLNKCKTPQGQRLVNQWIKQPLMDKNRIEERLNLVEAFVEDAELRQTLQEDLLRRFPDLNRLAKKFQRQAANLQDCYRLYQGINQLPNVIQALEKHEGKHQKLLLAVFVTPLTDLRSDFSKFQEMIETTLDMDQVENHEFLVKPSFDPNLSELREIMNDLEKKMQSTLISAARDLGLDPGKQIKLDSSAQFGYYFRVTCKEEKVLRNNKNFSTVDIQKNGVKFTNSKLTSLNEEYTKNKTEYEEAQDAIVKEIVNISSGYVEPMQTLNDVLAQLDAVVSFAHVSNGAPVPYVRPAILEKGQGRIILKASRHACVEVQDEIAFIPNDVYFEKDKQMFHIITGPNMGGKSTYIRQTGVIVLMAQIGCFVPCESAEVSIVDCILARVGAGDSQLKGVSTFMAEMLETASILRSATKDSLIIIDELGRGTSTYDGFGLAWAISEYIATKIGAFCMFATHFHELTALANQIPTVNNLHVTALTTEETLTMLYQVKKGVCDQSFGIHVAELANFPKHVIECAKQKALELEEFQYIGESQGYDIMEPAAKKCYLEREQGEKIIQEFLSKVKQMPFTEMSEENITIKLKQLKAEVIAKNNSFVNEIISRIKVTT
# No constants are given. Whether binding was seen depends on the method and setting. In cells and extracts the contact can be indirect. Some entries that bind do so weakly or less than the wild type.
# Molecular target: DNA2 (as in the co-IP and western blot of Fig. 2c, d) (UniProt P51530)
# Test: co-IP; whole-cell lysates (0.5% Nonidet P-40, 50 mM Tris-HCl, 0.1 mM EDTA, 150 mM NaCl) with an antibody against a specific protein and Protein A/G magnetic beads; wash with 500 mM NaCl; western blot
row,Substance,binding
1,MSH3 (from UniProt P20585 1-1137),no binding
2,"MutSα (MSH2-MSH6) (as in the co-IP and western blot of Fig. 2c, d) (from UniProt P43246 1-934; P52701 1-1360) (complex)",binds
